The series in a line: Sensory analysis of strawberry fillings, 9-points hedonic scale test. Particulars: 0.2% Composition A or 0.1% sodium benzoate, 30 persons.

Marks after values point to notes of the source that are not given here.

For `O=C([O-])c1ccccc1.[Na+]` [Sodium benzoate, sodium benzoate], the “Sensory properties: Color” value is recorded as 6.81 ± 1.27^a, the “Sensory properties: Global appreciation” value is 6.72 ± 1.06^a and the “Sensory properties: Texture” value is 6.68 ± 1.41^a.

The values above are taken from US20170079281A1, “CITRUS-BASED ANTIMICROBIAL COMPOSITION” (priority 2015, published 2017).
